The results in this text go back to patent US20160053258A1.

Numbering of substitutions follows the chain as printed. Numbers in names are those of the source. No constants are given. Whether binding was seen depends on the method and setting. In cells and extracts the contact can be indirect. Some binding calls cover weakened binding; strength is not graded here. For some assays here: Tags and fused reporters may be left off the sequences shown.

The target in one test is T1, GST-SET7/9 (human) (UniProt Q8WTS6).
T1 sequence (looked up): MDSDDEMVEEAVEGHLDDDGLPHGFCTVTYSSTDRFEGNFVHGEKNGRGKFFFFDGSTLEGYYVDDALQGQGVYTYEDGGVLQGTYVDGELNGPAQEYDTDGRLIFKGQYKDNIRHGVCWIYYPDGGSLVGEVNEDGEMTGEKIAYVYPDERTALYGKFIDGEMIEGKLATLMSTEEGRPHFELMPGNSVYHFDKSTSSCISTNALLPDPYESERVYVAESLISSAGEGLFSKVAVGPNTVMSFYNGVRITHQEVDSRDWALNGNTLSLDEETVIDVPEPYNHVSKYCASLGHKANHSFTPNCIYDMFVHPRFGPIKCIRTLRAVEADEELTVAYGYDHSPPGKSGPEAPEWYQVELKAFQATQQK
The experiment in a line: in vitro GST pull-down, immunoblot.

The target of test [1] is T2, over-expressed LIN28A (HEK293T cells) (UniProt Q9H9Z2).
T2 sequence (looked up): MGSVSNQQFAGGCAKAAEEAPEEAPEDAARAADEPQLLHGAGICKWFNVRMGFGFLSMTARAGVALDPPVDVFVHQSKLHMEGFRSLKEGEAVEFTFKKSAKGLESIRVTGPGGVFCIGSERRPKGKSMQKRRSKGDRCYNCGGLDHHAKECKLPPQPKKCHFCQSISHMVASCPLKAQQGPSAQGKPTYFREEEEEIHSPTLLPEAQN
The experiment in a line: co-immunoprecipitation of over-expressed LIN28A from HEK293T lysates, immunoblot; reverse immunoprecipitation of SET7/9 gave the same result.

The target in test [2] is T3, endogenous LIN28A (human) (UniProt Q9H9Z2).
T3 sequence (looked up): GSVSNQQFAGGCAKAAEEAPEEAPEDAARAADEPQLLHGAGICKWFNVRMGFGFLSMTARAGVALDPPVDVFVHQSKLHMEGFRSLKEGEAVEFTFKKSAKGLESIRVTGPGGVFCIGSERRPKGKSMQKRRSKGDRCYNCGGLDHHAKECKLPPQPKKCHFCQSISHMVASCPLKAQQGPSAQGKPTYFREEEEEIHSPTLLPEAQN
Kind of test: co-immunoprecipitation of endogenous LIN28A from H9 and NCCIT lysates, immunoblot; reverse immunoprecipitation of SET7/9 gave the same result. (In western blotting, separated proteins are transferred to a membrane and probed.)

B1: LIN28A (125-209) (protein, human, UniProt Q9H9Z2 125-209, looked up, not shown: large carriers)
chain: KGKSMQKRRSKGDRCYNCGGLDHHAKECKLPPQPKKCHFCQSISHMVASCPLKAQQGPSAQGKPTYFREEEEEIHSPTLLPEAQN
For the molecule B1, the binding result with GST-SET7/9 (human) is given as “binds”.

B2: SET7/9 (in cell lysates) (enzyme, human, UniProt Q8WTS6 1-366, looked up)
chain: T1 sequence (looked up)
With B2, the binding result in test [1] and in test [2] was “binds” each time.

B3: 6×HIS-LIN28A-K135R (protein, human, UniProt Q9H9Z2 1-209, looked up, not shown: small tags and cut ends)
chain: T2 sequence (looked up) with K135R
Consider B3, for which the binding entry with GST-SET7/9 (human) was “binds”.

B4: 6×HIS-labeled human LIN28A (full-length) (protein, UniProt Q9H9Z2 1-209, looked up, not shown: small tags and cut ends)
chain: T2 sequence (looked up)
In the case of B4, the binding result with GST-SET7/9 (human) is listed as “binds”.
